Measurements from PMC9780223.
No constants are given. Whether binding was seen depends on the method and setting. Some entries that bind do so weakly or less than the wild type.

By UniProt entry, the sequences of proteins in these tests, tags left out. Residues count along the entry.
UniProt Q13219, residues 82-1627: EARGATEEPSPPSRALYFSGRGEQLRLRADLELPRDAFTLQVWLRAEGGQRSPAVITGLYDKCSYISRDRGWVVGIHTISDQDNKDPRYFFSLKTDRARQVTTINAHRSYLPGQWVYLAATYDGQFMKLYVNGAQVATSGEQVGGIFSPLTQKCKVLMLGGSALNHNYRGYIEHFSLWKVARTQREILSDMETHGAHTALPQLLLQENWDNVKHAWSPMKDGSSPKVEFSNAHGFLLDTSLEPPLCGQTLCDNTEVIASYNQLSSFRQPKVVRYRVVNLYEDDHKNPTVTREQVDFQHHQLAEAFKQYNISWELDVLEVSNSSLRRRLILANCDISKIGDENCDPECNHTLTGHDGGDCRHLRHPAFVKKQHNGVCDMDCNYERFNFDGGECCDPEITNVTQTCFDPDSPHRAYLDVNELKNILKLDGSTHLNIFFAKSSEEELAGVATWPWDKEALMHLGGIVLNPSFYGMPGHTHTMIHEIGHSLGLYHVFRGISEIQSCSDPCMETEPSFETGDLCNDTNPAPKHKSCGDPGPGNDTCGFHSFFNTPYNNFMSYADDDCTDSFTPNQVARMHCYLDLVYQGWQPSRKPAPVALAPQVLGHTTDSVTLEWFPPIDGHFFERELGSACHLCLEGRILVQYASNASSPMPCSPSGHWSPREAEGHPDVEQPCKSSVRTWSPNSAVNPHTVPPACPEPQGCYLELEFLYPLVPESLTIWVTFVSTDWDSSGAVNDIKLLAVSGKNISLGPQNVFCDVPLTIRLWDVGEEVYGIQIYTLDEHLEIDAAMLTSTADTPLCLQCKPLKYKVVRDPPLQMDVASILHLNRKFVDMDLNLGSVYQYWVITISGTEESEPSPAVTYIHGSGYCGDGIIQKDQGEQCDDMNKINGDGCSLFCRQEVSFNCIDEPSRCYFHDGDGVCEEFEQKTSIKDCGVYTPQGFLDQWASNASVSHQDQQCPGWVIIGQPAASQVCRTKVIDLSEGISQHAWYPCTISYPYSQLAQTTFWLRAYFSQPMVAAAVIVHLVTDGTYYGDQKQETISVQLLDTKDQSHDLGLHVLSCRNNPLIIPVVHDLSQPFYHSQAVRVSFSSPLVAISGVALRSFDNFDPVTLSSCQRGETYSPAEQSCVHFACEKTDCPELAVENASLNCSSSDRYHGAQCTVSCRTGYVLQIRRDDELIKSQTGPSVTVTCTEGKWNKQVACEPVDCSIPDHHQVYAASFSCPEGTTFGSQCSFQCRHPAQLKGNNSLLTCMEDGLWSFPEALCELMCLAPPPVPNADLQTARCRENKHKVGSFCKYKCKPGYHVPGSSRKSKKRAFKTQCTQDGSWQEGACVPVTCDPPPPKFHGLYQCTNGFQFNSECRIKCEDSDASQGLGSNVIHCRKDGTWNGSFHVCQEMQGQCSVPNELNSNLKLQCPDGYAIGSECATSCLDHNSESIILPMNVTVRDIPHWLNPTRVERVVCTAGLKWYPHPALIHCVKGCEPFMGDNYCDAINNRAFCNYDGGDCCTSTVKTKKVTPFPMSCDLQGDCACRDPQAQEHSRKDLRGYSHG

Molecular target: recombinant wild-type PAPP-A, MBP-His10 tagged (human) (UniProt Q13219)
Assay: gel of covalent complexes (lanes of Supplementary Fig. S10b, c); PAPP-A WT or C1130S alone or with proMBP or STC2; kind of gel and samples not shown

binding: binds
Substance: recombinant wild-type PAPP-A, MBP-His10 tagged (from UniProt Q13219 82-1627) (enzyme)
